The text below walks through data of article PMC12040169 (PLOS Biology, 2025).

Some of the results follow.

The subject of this experiment is T1, CTL2-GFP (C. trachomatis L2/434/Bu, GFP-expressing).
T1 construct: L2/434/Bu, GFP-expressing
On the set-up: species or system HeLa; Intracellular C. trachomatis growth in HeLa cells, bulk GFP fluorescence relative to DMSO. As to conditions: bulk GFP, single well; 28.5 h, 10 µM; inhibitor.
With `CCCNC(=O)Cn1nc(-c2cc3c(s2)CCC3)oc1=O` [CBK284713], the “% of control remaining” value stood at 168.46%.
Regarding `O=C(CCn1ccc2ccc(F)cc21)NC[C@H]1CC[C@H](C(=O)O)CC1` [CBK286666], the “% of control remaining” value was found to be 129.931%.
As for `O=C(O)C1CCN(Cc2ccc(Cl)cc2)CC1` [CBK286895], the figure is 108.141%; as for `COc1ccc(CC(=O)NNC(=O)c2ccc(C(C)(C)C)cc2)cc1` [CBK261700], 101.774%; as for `Nc1ncc(-c2ccccc2)nc1NCc1cccnc1` [CBK063452], 109.593%.
With `CCCC(=O)c1ccc(S(=O)(=O)N2CCCN(Cc3c[nH]nc3-c3ccc(F)cc3)CC2)cc1` [CBK062911], the “% of control remaining” value is 96.1032%.
With `Cc1ccccc1CC(=O)N1CCCC1c1n[nH]cc1-c1ccncc1` (stereo not shown) [CBK283431] the figure was 164.268%; with `COc1ccccc1C1CC(c2ccccc2)=NN1C(=O)CCC(=O)O` (stereo not shown) [CBK287088], 106.375%.
Consider `O=C(Cc1ncc(C(F)(F)F)cc1Cl)NO` [CBK007437], for which the “% of control remaining” value was 144.802%.
As to `CCOC(=O)c1cnc2c(C)cc(Cl)cc2c1N1CCN(Cc2ccccc2)CC1` [CBK265975], the “% of control remaining” value is recorded as 83.9977%.
As for `OCCOc1ccccc1-c1nnco1` [CBK001972], the figure is 102.289%; as for `CC(C)(C)c1ccccc1[S+]([O-])c1cc2c(N3CCNCC3)nccc2s1` (stereo not shown) [CBK200018C], 100.114%; as for `Oc1ccc(Nc2ncnc3scc(-c4ccccc4)c23)cc1` [CBK269146C], 130.122%.
For `CC1CCC(N2CCN(Cc3ccccn3)CC2)CC1` (stereo not shown) [CBK263473], the “% of control remaining” value is on record as 100%.
With `CC(=O)N(C)c1ncc(Br)cc1C(=O)NCC1COc2ccccc2O1` (stereo not shown) [CBK076558] the figure was 120.145%; with `Cc1ccc(NCc2nc3ccccc3n2Cc2ccccc2)cc1C` [CBK263756], 113.745%; with `CC(C)CC(=O)N1CCc2c([nH]c3ccccc23)C12CCN(Cc1ccccc1)C2` (stereo not shown) [CBK059459], 119.417%.
As for `Cc1ccc(C(=O)Nc2cccc(OC(=O)c3cc(S(=O)(=O)N4CCCCC4)ccc3Cl)c2)cc1` [CBK261368], the figure is 44.4839%; as for `CCc1noc(C)c1C(=O)N1CCC(NC)C1` (stereo not shown) [CBK304299C], 116.826%; as for `O=C(COc1ccccc1)NC(=S)Nc1cccc(-c2nc3ccccc3s2)c1` [CBK264360], 100%.
With `Cc1c(S(=O)(=O)NCc2ccc(C(F)(F)F)c(F)c2)cnn1-c1ccccc1` [CBK062115] the figure was 157.391%.
With `CN1[C@@H](CCC(=O)N2CCOCC2)CNC(=O)[C@@H]2[C@H]1CCN2C1CCCCC1` [CBK289032], the “% of control remaining” value is 134.619%.
As for `c1ccc(OCc2nc3c4c(-c5ccccc5)c(-c5ccccc5)oc4ncn3n2)cc1` [CBK262939], the figure is 100%; as for `Cc1nn(Cc2ccccc2)c(C)c1C(=O)N(C)C` [CBK015942], 127.503%; as for `Cc1cc(C)cc(N(CC(=O)O)S(C)(=O)=O)c1` [CBK263775], 88.8715%.
With `Cc1nn(C)c(N2CCNCC2)c1NC(=O)c1cccs1` [CBK050303T], the “% of control remaining” value was 126.991%.
Consider `Cc1ccc(S(=O)(=O)NC(C)(C)CSc2nncn2C)cc1` [CBK266366], for which the “% of control remaining” value was determined as 141.264%.
As for `COCc1cccc(-c2ncc(OCC3COc4ccccc4O3)nc2N)c1` (stereo not shown) [CBK145113], the figure is 100.064%; as for `Cc1ccnc2nc(C(=O)OC(C)C(=O)NC3CC3)nn12` (stereo not shown) [CBK304998], 140.62%; as for `CC(=O)Nc1nc(OCCOc2ccccc2)cnc1-c1cnn(C)c1` [CBK145425], 114.115%.
Regarding `CC(C)CCCC(=O)n1c(=O)n(CCc2c[nH]c3ccccc23)c2ccccc21` [CBK106513], the “% of control remaining” value is recorded as 126.396%.
As for `CCSc1ncc(Cl)c(C(=O)N(Cc2cccc(Br)c2)C2CCS(=O)(=O)C2)n1` (stereo not shown) [CBK268969], the figure is 138.052%.
Consider `CN1C(=O)COc2ccccc2C/C=C/C[C@H]2CNCC[C@H]21` [CBK292076], for which the “% of control remaining” value is on record as 116.472%.
Consider `CC(=O)Nc1cccc(-n2nnnc2SC2CCCC2)c1` [CBK305996], for which the “% of control remaining” value amounted to 155.901%.
With `CCC1c2ccsc2CCN1CC(O)COCc1ccco1` (stereo not shown) [CBK303992] the figure was 164.061%; with `O=S(=O)(N1CCCCCC1)N1CCN(S(=O)(=O)N2CCCCC2)CC1` [CBK269001], 82.1185%; with `CN(c1ccccc1)S(=O)(=O)c1cccc(NC(=O)Cc2csc(-c3ccco3)n2)c1` [CBK297792], 155.828%.
Take `Cc1cccc(-c2n[nH]c(=S)n2CCC(=O)Nc2ccc(N3CCCC3=O)c(C)c2)c1` [CBK296733]: the “% of control remaining” value came out at 124.498%.
With `CC(Oc1ccc(Cl)cc1Cl)C(=O)Nc1ccc(OCC(=O)O)cc1` (stereo not shown) [CBK266542] the figure was 168.802%; with `FC(F)(F)c1cccnc1OCCCc1ccncc1` [CBK115782], 96.7729%.
